Experimental data as given in PubChem BioAssay AID330 (DTP/NCI, 2004).
The list shows only some results of the screen, not a fair sample: it is rich in T/C values a quarter to a half above the control, in often repeated tests (any T/C) and in doses without a T/C. Further doses and runs are listed elsewhere. T/C is the treated group as % of the vehicle group. Some entries give survivors of the animals treated and no T/C: the source holds a T/C of zero for them, seemingly a mark for toxic or unscored doses. Some doses without a T/C left all or most animals alive at the check, yet need not have been tolerated: survival well below the control is almost never listed, so the zero probably covers shortened survival too. Survivors were counted at the toxicity check, usually on the fifth day, unless a day is given; later deaths do not show. Schedule codes are those of the source, taken here to give the interval after Q, in days (D) or hours (H), and the number of doses after X. Some doses were run more than once; the values are given in rising order. For survival time, this PubChem deposit counts one and a half times the control or more as active, and values a quarter to a half above the control carry no call in these data; other NCI protocols may use other cut-offs.

Tested on: P388 leukemia ip, CD2F1 mice, survival T/C
Test: NCI In Vivo Anticancer Drug Screen. Data for tumor model P388 Leukemia (intraperitoneal) in CD2F1 (CDF1) mice
Conditions: T/C endpoint: median survival time, higher T/C = longer survival
[1] = dose: 200.0 mg/kg/injection, schedule: Q01DX005 (ip), vehicle: Klucel (hydroxypropylcellulose) (HPC)
[2] = dose: 25.0 mg/kg/injection, schedule: Q04DX002 (ip), vehicle: saline with Tween-80
[3] = dose: 200.0 mg/kg/injection, schedule: Q01DX005 (ip), vehicle: saline with Tween-80
[4] = dose: 50.0 mg/kg/injection, schedule: Q01DX005 (ip), vehicle: saline
[5] = dose: 100.0 mg/kg/injection, schedule: Q01DX005 (ip), vehicle: saline
[6] = dose: 200.0 mg/kg/injection, schedule: Q01DX005 (ip), vehicle: saline
[7] = dose: 50.0 mg/kg/injection, schedule: Q01DX005 (ip), vehicle: Klucel (hydroxypropylcellulose) (HPC)
[8] = dose: 100.0 mg/kg/injection, schedule: Q04DX003 (ip), vehicle: saline with Tween-80
[9] = dose: 200.0 mg/kg/injection, schedule: Q04DX003 (ip), vehicle: saline with Tween-80
[10] = dose: 400.0 mg/kg/injection, schedule: Q04DX003 (ip), vehicle: saline with Tween-80
[11] = dose: 50.0 mg/kg/injection, schedule: Q01DX009 (ip), vehicle: saline
[12] = dose: 100.0 mg/kg/injection, schedule: Q01DX005 (ip), vehicle: saline with Tween-80

COc1cccc2c1C(=O)c1c(O)c3c(c(O)c1C2=O)C[C@@](O)(C(C)O)C[C@@H]3OC1CC(N)C(O)C(C)O1 (stereo partly specified)
T/C (dose: 0.65 mg/kg/injection, schedule: Q01DX009 (ip), vehicle: saline): 145 % of control | T/C (dose: 5.0 mg/kg/injection, schedule: Q01DX001 (ip), vehicle: saline): 145 % of control | T/C (dose: 8.0 mg/kg/injection, schedule: Q01DX009 (ip), vehicle: saline): 125 % of control | survivor count (dose: 13.0 mg/kg/injection, schedule: Q01DX009 (ip), vehicle: saline): 6 of 6 | T/C (dose: 13.3 mg/kg/injection, schedule: Q01DX001 (ip), vehicle: saline): 145 % of control | T/C (dose: 22.2 mg/kg/injection, schedule: Q04DX003 (ip), vehicle: saline): 145 % of control

Cn1c(=O)oc2cc(NC(N)=O)c(Br)cc21
survivor count [1]: 6 of 6

O=C1NC(=O)C2(CCCC2)c2ccncc21
survivor count [2]: 2 of 6

CN1C(=O)C/C(=C\N2CCCCC2)C1=O
survivor count [3]: 1 of 5

CCCCCCCCCCCC(=O)NCCc1ccc(O)c(O)c1
T/C (dose: 400.0 mg/kg/injection, schedule: Q04DX003 (ip), vehicle: Klucel (hydroxypropylcellulose) (HPC)): 126 % of control

COc1cc(/C=C/[N+](=O)[O-])c(OC)cc1Br
T/C (dose: 12.5 mg/kg/injection, schedule: Q01DX009 (ip), vehicle: saline with Tween-80): 130 % of control | survivor count (dose: 50.0 mg/kg/injection, schedule: Q01DX009 (ip), vehicle: saline with Tween-80): 4 of 6

O=S1(=O)CCC2CCCCC2C1 (stereo unspecified)
survivor count (dose: 25.0 mg/kg/injection, schedule: Q01DX009 (ip), vehicle: saline with Tween-80): 3 of 6

CCN(CC)CCCC(C)n1c2nc(=O)[nH]c(=O)c-2nc2ccc(Cl)cc21 (stereo unspecified)
survivor count [4]: 0 of 6 | survivor count [5]: 0 of 6 | survivor count [6]: 0 of 6

CCNC(=O)c1nnn2c1nc(N)c1cc(Cl)ccc12
survivor count [7]: 1 of 6

CCC12CCCN1CCc1c([nH]c3ccccc13)C2=O (stereo unspecified)
survivor count (dose: 400.0 mg/kg/injection, schedule: Q04DX002 (ip), vehicle: suspension in saline): 0 of 6

C[N+](C)(C)C1CCC2CCCCC2C1 (stereo unspecified)
survivor count [8]: 4 of 6 and 6 of 6 | survivor count [9]: 1 of 6 | survivor count [10]: 0 of 6

COc1cccc2c1C(=O)c1c(O)c3c(c(O)c1C2=O)C[C@@](O)(C(C)=O)[C@@H](OC)[C@@H]3OC1CC(N)C(O)C(C)O1 (stereo partly specified)
T/C (dose: 9.6 mg/kg/injection, schedule: Q04DX003 (ip), vehicle: water): 138 % of control | T/C (dose: 10.0 mg/kg/injection, schedule: Q04DX003 (ip), vehicle: water): 133 % of control | T/C (dose: 20.0 mg/kg/injection, schedule: Q04DX003 (ip), vehicle: water): 133 % of control | T/C (dose: 40.0 mg/kg/injection, schedule: Q04DX003 (ip), vehicle: water): 149 % of control

BrC1=CC(Br)=C2N=C(N3CCCC3)N=C3N=C(N4CCCC4)N=C1N32
survivor count (dose: 30.0 mg/kg/injection, schedule: Q01DX005 (ip), vehicle: Klucel + Tween-80): 6 of 6 | survivor count (dose: 60.0 mg/kg/injection, schedule: Q01DX005 (ip), vehicle: Klucel + Tween-80): 6 of 6 | survivor count (dose: 120.0 mg/kg/injection, schedule: Q01DX005 (ip), vehicle: Klucel + Tween-80): 5 of 6 | survivor count (dose: 240.0 mg/kg/injection, schedule: Q01DX005 (ip), vehicle: Klucel + Tween-80): 2 of 6

[C-]#[N+]C([N+]#[C-])=C(C)OCC
survivor count [11]: 6 of 6 | survivor count (dose: 200.0 mg/kg/injection, schedule: Q01DX009 (ip), vehicle: saline): 6 of 6

CC(=O)Nc1ccc2c(c1)/C(=C/c1ccc(N(C)C)cc1)c1ccccc1-2
survivor count (dose: 25.0 mg/kg/injection, schedule: Q01DX009 (ip), vehicle: Klucel (hydroxypropylcellulose) (HPC)): 6 of 6 | survivor count (dose: 50.0 mg/kg/injection, schedule: Q01DX009 (ip), vehicle: Klucel (hydroxypropylcellulose) (HPC)): 6 of 6 | survivor count (dose: 100.0 mg/kg/injection, schedule: Q01DX009 (ip), vehicle: Klucel (hydroxypropylcellulose) (HPC)): 6 of 6 | survivor count (dose: 200.0 mg/kg/injection, schedule: Q01DX009 (ip), vehicle: Klucel (hydroxypropylcellulose) (HPC)): 6 of 6

CC(O)CCOC(C[N+](=O)[O-])C(Cl)(Cl)Cl (stereo unspecified)
survivor count (dose: 100.0 mg/kg/injection, schedule: Q01DX009 (ip), vehicle: saline with Tween-80): 6 of 6

CC(N1CCOCC1)C(O)(c1ccccc1)c1ccccn1 (stereo unspecified)
survivor count (dose: 200.0 mg/kg/injection, schedule: Q01DX005 (ip), vehicle: saline + alcohol): 0 of 6

CCCCCCCCSP(SCCCCCCCC)SCCCCCCCC
survivor count [11]: 3 of 6 and 6 of 6

COc1cccc2c1C(=O)C=C(c1ccccc1)S2(=O)=O
survivor count [1]: 0 of 6

CCCCN(CCCC)C(=N)c1c2ccccc2nc2ccccc12
survivor count [4]: 1 of 5 | survivor count [5]: 0 of 5 | survivor count [6]: 0 of 5

CCCCC(CC)C(=O)[O][Pb]([CH2]CCC)([CH2]CCC)[CH2]CCC (stereo unspecified)
survivor count [2]: 0 of 6 | survivor count (dose: 50.0 mg/kg/injection, schedule: Q04DX002 (ip), vehicle: saline with Tween-80): 0 of 6 | survivor count (dose: 100.0 mg/kg/injection, schedule: Q04DX002 (ip), vehicle: saline with Tween-80): 0 of 6 | survivor count (dose: 200.0 mg/kg/injection, schedule: Q04DX002 (ip), vehicle: saline with Tween-80): 0 of 6 | survivor count (dose: 400.0 mg/kg/injection, schedule: Q04DX002 (ip), vehicle: saline with Tween-80): 0 of 6

N#CC#Cc1cccc(C#CC#N)c1
survivor count (dose: 25.0 mg/kg/injection, schedule: Q01DX001 (ip), vehicle: saline with Tween-80): 1 of 6 and 2 of 6 | survivor count (dose: 50.0 mg/kg/injection, schedule: Q01DX001 (ip), vehicle: saline with Tween-80): 0 of 6 | survivor count (dose: 100.0 mg/kg/injection, schedule: Q01DX001 (ip), vehicle: saline with Tween-80): 0 of 6 | survivor count (dose: 200.0 mg/kg/injection, schedule: Q01DX001 (ip), vehicle: saline with Tween-80): 0 of 6 | survivor count (dose: 400.0 mg/kg/injection, schedule: Q01DX001 (ip), vehicle: saline with Tween-80): 0 of 6

COC(=O)/N=C1\C(=O)C=CC(O)=C1C(N)=O
survivor count (dose: 50.0 mg/kg/injection, schedule: Q01DX005 (ip), vehicle: saline with Tween-80): 0 of 6 | survivor count [12]: 0 of 6 | survivor count [3]: 0 of 6

CC(=O)C(C=O)C(C)=O.CC(=O)CC(C)=O.CC(=O)CC(C)=O.[Ru]
survivor count (dose: 120.0 mg/kg/injection, schedule: Q01DX005 (ip), vehicle: saline with Tween-80): 3 of 6 | survivor count (dose: 240.0 mg/kg/injection, schedule: Q01DX005 (ip), vehicle: saline with Tween-80): 1 of 6

CN(C)CCSSCCN(C)C.[Cl][Zn][Cl]
survivor count [7]: 3 of 6 | survivor count (dose: 100.0 mg/kg/injection, schedule: Q01DX005 (ip), vehicle: Klucel (hydroxypropylcellulose) (HPC)): 0 of 6 | survivor count [1]: 0 of 6

CC(=O)c1c(-c2ccc(Cl)cc2)c(-c2ccc(Cl)cc2)nn(CCN)c1=O
survivor count [12]: 1 of 6 | survivor count [3]: 0 of 6

COc1ccc(/C=C\C(=O)c2ccc(C(=O)/C=C/c3ccc(OC)cc3OC)cc2)c(OC)c1
survivor count [8]: 6 of 6 | survivor count [9]: 6 of 6 | survivor count [10]: 6 of 6

N#CN=[N+]([O-])c1ccc(Cl)cc1
survivor count (dose: 50.0 mg/kg/injection, schedule: Q04DX003 (ip), vehicle: Klucel (hydroxypropylcellulose) (HPC)): 4 of 6
